Results are given in words; binding and its absence hold for the method and conditions named. Binding seen in cells or lysates may run through a third protein. Some results given as binding are weak or reduced against the parent protein; the word gives no strength. For some assays here: Sequences can lack the tags named with a protein.
B1: HA epitope tagged-ADD3 (adducin 3, γ isoform), expressed in HEK293 cells (protein, UniProt Q9UEY8 1-706)
chain: MSSDASQGVITTPPPPSMPHKERYFDRINENDPEYIRERNMSPDLRQDFNMMEQRKRVTQILQSPAFREDLECLIQEQMKKGHNPTGLLALQQIADYIMANSFSGFSSPPLSLGMVTPINDLPGADTSSYVKGEKLTRCKLASLYRLVDLFGWAHLANTYISVRISKEQDHIIIIPRGLSFSEATASNLVKVNIIGEVVDQGSTNLKIDHTGFSPHAAIYSTRPDVKCVIHIHTLATAAVSSMKCGILPISQESLLLGDVAYYDYQGSLEEQEERIQLQKVLGPSCKVLVLRNHGVVALGETLEEAFHYIFNVQLACEIQVQALAGAGGVDNLHVLDFQKYKAFTYTVAASGGGGVNMGSHQKWKVGEIEFEGLMRTLDNLGYRTGYAYRHPLIREKPRHKSDVEIPATVTAFSFEDDTVPLSPLKYMAQRQQREKTRWLNSPNTYMKVNVPEESRNGETSPRTKITWMKAEDSSKVSGGTPIKIEDPNQFVPLNTNPNEVLEKRNKIREQNRYDLKTAGPQSQLLAGIVVDKPPSTMQFEDDDHGPPAPPNPFSHLTEGELEEYKRTIERKQQGLEDAEQELLSDDASSVSQIQSQTQSPQNVPEKLEENHELFSKSFISMEVPVMVVNGKDDMHDVEDELAKRVSRLSTSTTIENIEITIKSPEKIEEVLSPEGSPSKSPSKKKKKFRTPSFLKKNKKKEKVEA

Protein sequences, listed by entry. Tags and fused reporters are not part of them.
UniProt O14980: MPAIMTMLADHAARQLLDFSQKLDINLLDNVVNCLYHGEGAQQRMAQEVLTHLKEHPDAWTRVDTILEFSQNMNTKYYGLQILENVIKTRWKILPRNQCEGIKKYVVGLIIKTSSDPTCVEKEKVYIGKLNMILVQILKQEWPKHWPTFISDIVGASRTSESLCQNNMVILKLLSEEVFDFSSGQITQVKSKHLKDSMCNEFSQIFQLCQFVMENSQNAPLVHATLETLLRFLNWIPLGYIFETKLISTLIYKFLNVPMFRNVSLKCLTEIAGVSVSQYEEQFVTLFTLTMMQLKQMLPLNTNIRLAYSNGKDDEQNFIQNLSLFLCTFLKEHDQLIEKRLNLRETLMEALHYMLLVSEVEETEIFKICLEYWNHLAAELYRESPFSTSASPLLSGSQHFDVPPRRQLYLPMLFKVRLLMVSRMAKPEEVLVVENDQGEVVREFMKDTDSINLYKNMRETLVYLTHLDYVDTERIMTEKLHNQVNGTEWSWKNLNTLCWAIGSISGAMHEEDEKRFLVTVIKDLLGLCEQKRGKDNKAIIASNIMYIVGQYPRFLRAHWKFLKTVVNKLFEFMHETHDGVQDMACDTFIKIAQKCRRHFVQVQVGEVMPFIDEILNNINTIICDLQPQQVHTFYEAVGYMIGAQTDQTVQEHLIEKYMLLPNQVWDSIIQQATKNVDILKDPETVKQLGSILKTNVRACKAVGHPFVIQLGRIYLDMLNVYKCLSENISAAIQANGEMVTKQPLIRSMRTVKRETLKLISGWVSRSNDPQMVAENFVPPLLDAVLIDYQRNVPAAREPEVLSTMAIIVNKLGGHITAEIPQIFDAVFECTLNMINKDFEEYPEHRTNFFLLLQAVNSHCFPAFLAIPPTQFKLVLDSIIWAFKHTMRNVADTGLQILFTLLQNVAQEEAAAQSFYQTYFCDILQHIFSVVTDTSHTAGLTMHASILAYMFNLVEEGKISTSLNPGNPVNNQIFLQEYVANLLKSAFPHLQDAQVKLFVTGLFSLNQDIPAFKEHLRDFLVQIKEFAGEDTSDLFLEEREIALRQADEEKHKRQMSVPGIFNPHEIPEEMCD
UniProt Q9HAV4: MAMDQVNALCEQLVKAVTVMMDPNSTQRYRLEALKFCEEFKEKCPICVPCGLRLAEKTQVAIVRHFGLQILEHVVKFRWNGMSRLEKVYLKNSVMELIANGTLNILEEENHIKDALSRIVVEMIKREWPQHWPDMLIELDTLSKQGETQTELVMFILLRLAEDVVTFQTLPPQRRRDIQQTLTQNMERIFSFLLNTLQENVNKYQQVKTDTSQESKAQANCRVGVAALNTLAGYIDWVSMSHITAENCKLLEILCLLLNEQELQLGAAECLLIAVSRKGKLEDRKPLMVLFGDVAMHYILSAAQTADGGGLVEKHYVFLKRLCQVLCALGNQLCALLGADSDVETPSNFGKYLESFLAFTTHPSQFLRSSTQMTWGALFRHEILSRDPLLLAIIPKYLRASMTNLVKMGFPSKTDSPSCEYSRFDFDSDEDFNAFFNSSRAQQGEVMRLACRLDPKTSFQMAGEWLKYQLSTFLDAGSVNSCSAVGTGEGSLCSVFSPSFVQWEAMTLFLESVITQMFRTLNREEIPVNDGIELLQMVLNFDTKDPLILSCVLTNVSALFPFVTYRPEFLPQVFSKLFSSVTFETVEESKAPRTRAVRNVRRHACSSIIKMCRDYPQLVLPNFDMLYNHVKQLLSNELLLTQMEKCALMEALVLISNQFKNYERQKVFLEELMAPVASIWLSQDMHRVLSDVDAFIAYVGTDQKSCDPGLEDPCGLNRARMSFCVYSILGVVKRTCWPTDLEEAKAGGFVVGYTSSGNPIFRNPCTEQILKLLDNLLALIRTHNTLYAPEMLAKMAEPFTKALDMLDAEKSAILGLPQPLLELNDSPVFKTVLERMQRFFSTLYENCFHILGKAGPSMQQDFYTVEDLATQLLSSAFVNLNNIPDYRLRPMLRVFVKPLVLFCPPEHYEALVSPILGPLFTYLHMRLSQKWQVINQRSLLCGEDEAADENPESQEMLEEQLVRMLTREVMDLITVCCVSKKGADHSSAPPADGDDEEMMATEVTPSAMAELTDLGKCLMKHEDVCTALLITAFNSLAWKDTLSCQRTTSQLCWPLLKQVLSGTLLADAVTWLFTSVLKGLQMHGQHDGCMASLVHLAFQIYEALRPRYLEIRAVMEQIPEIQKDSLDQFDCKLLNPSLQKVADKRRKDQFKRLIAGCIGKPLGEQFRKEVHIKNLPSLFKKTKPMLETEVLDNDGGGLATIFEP
UniProt P35611: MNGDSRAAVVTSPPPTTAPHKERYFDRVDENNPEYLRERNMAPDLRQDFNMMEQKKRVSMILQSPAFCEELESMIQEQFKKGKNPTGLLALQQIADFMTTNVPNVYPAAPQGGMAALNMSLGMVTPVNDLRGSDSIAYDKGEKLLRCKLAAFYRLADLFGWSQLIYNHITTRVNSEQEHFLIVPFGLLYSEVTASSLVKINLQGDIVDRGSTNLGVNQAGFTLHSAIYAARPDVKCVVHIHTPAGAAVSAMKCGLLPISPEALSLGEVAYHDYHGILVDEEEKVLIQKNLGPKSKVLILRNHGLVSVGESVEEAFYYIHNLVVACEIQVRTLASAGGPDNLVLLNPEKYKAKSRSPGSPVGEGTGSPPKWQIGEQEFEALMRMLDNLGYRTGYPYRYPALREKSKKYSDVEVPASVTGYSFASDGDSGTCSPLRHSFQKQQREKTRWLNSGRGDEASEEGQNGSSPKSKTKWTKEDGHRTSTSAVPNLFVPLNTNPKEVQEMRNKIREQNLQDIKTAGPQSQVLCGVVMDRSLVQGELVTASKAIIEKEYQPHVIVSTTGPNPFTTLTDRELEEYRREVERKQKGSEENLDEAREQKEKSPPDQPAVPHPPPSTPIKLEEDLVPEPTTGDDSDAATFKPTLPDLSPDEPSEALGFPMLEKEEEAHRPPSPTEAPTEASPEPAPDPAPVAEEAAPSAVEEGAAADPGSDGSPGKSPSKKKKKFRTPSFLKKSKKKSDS
UniProt P35612: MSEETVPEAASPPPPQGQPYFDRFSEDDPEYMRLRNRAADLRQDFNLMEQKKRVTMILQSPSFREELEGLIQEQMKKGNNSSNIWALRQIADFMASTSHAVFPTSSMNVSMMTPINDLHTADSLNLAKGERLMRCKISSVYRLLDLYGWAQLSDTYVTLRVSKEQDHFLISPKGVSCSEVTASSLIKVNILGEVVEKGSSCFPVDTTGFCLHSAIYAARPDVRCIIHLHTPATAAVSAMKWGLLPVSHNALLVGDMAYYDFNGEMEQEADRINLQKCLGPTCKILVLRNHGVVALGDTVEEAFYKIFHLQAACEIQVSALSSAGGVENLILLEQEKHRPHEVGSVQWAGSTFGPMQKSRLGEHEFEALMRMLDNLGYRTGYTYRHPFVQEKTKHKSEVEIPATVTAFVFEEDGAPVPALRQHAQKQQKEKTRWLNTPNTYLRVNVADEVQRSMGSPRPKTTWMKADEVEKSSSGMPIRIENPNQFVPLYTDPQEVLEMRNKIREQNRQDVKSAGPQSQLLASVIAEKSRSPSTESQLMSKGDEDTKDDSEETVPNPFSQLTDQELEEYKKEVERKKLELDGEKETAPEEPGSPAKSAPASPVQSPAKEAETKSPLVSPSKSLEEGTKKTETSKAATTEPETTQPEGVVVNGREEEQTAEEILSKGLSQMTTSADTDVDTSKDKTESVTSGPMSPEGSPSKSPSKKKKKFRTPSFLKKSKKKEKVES
UniProt Q9NQX6: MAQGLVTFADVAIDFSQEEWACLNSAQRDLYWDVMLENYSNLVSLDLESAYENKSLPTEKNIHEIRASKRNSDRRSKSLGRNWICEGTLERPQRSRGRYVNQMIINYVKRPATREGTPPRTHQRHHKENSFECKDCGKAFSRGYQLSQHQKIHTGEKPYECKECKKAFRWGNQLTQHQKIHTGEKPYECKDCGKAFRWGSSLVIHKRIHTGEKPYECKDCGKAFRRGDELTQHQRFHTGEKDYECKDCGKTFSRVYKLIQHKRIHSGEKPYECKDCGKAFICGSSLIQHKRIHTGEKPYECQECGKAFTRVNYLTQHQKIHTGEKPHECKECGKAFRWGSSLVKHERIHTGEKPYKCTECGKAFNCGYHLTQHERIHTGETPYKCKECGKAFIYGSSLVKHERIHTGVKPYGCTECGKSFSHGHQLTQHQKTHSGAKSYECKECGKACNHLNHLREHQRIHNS

What was measured:
[1] = target: CRM1 (chromosomal maintenance 1, also known as exportin1) (human (endogenous in HEK293)) (UniProt O14980); experiment: co-IP; endogenous CRM1 or exportin5 immunoprecipitated with anti-CRM1 or anti-exportin5 (pre-immune serum as control) from lysates of HEK293 cells transiently expressing HA-ADD proteins, 1% NP-40 lysis buffer; immunoblot with anti-HA
[2] = target: exportin5 (human (endogenous in HEK293)) (UniProt Q9HAV4); experiment: as above
FLAG epitope-tagged ADD1 = FLAG epitope-tagged ADD1 (UniProt P35611); experiment: co-IP; lysates of HeLa and A431 cells stably expressing FLAG-ADD1; pre-immune serum (IgG) as control; which partner was precipitated is not given

Row | Molecule | binding [1] | binding [2] | binding (FLAG epitope-tagged ADD1)
1 | HA epitope tagged-ADD1 (adducin 1, α isoform), expressed in HEK293 cells (from UniProt P35611 1-737) | binds |  | 
2 | HA epitope tagged-ADD2 (adducin 2, β isoform), expressed in HEK293 cells (from UniProt P35612 1-726) | binds | binds | 
3 | zinc-finger protein 331 (from UniProt Q9NQX6 1-463) |  |  | binds
4 | B1 | binds |  | 

Source: publication PMC5424492
